Experimental data from PMC3163680.

Legend:
Flag-tagged Tbx5 (mouse) = target: T1, Flag-tagged Tbx5 (mouse) (UniProt P70326); assay: co-IP; COS-7 cells co-transfected; lysis buffer 20 mM Tris, 150 mM NaCl, 0.5% Triton X-100, 1 mM EDTA, pH 7.5; anti-Flag M2 agarose beads, 4 hours at 4°C; Western blot with anti-Myc
T1 sequence: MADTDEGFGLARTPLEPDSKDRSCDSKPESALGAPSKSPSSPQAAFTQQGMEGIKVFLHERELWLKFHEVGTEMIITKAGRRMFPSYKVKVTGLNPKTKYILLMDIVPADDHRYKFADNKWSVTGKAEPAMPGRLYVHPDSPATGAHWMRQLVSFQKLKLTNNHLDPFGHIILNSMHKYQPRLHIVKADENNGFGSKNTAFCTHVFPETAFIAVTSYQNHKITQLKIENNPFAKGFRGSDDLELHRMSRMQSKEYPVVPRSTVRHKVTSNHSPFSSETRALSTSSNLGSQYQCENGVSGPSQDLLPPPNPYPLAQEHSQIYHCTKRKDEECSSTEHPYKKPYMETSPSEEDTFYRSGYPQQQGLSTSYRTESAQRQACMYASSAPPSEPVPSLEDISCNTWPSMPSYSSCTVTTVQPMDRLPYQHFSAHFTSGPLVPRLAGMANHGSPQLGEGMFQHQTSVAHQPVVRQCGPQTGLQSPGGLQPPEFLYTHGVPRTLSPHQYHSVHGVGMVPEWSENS

[1] = target: T2, Myc-tagged Tbx5 (in vitro translated) (mouse) (UniProt P70326); assay: native gel or EMSA; 32P-labeled TBE probe; Myc-Tbx5 with increasing amount of Flag-myocardin, both in vitro translated
T2 sequence: T1 sequence

Serum Response Factor = target: T3, Serum Response Factor (UniProt P11831); assay: native gel or EMSA; 32P-labeled CArG probe; Flag-myocardin with or without SRF, with or without Myc-Tbx5; anti-SRF supershift
T3 sequence: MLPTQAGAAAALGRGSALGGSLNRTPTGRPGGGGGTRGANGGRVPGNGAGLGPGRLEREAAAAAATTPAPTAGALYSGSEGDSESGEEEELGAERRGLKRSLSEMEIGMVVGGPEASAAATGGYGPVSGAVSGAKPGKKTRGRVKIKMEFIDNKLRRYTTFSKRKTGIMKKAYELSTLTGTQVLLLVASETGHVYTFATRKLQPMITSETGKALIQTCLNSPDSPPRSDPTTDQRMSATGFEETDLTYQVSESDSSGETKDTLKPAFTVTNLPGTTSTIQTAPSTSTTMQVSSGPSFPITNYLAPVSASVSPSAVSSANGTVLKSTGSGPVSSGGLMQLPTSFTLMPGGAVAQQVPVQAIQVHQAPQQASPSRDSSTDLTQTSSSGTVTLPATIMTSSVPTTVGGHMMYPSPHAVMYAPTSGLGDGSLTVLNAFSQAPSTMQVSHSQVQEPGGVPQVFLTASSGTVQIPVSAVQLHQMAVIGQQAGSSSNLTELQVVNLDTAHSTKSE

Flag-tagged myocardin = assay: co-IP; COS-7 cells co-transfected; lysis buffer 20 mM Tris, 150 mM NaCl, 0.5% Triton X-100, 1 mM EDTA, pH 7.5; anti-Flag M2 agarose beads, 4 hours at 4°C; Western blot with anti-Myc

Molecule: Flag-tagged myocardin (in vitro translated)
binding [1]: no binding | binding (Serum Response Factor): binds

B1: Myc-tagged Tbx5 N-terminal deletion mutant (aa 119-519) (domain or fragment, UniProt P70326 119-518)
chain: NKWSVTGKAEPAMPGRLYVHPDSPATGAHWMRQLVSFQKLKLTNNHLDPFGHIILNSMHKYQPRLHIVKADENNGFGSKNTAFCTHVFPETAFIAVTSYQNHKITQLKIENNPFAKGFRGSDDLELHRMSRMQSKEYPVVPRSTVRHKVTSNHSPFSSETRALSTSSNLGSQYQCENGVSGPSQDLLPPPNPYPLAQEHSQIYHCTKRKDEECSSTEHPYKKPYMETSPSEEDTFYRSGYPQQQGLSTSYRTESAQRQACMYASSAPPSEPVPSLEDISCNTWPSMPSYSSCTVTTVQPMDRLPYQHFSAHFTSGPLVPRLAGMANHGSPQLGEGMFQHQTSVAHQPVVRQCGPQTGLQSPGGLQPPEFLYTHGVPRTLSPHQYHSVHGVGMVPEWSENS
binding (Flag-tagged myocardin): no binding

B4: Myc-tagged Tbx5 deletion mutant (aa 1-100) (domain or fragment, UniProt P70326 1-100)
chain: MADTDEGFGLARTPLEPDSKDRSCDSKPESALGAPSKSPSSPQAAFTQQGMEGIKVFLHERELWLKFHEVGTEMIITKAGRRMFPSYKVKVTGLNPKTKY
binding (Flag-tagged myocardin): binds

B5: Myc-tagged Tbx5 deletion mutant (aa 1-200) (domain or fragment, UniProt P70326 1-200)
chain: MADTDEGFGLARTPLEPDSKDRSCDSKPESALGAPSKSPSSPQAAFTQQGMEGIKVFLHERELWLKFHEVGTEMIITKAGRRMFPSYKVKVTGLNPKTKYILLMDIVPADDHRYKFADNKWSVTGKAEPAMPGRLYVHPDSPATGAHWMRQLVSFQKLKLTNNHLDPFGHIILNSMHKYQPRLHIVKADENNGFGSKNTA
binding (Flag-tagged myocardin): no binding

Results, then the molecule that gave them:

binding (Flag-tagged Tbx5 (mouse)): binds
Molecule: Myc-tagged myocardin

binding (Flag-tagged myocardin): binds
B2: Myc-tagged Tbx5 deletion mutant (aa 1-300) (domain or fragment, UniProt P70326 1-300)
chain: MADTDEGFGLARTPLEPDSKDRSCDSKPESALGAPSKSPSSPQAAFTQQGMEGIKVFLHERELWLKFHEVGTEMIITKAGRRMFPSYKVKVTGLNPKTKYILLMDIVPADDHRYKFADNKWSVTGKAEPAMPGRLYVHPDSPATGAHWMRQLVSFQKLKLTNNHLDPFGHIILNSMHKYQPRLHIVKADENNGFGSKNTAFCTHVFPETAFIAVTSYQNHKITQLKIENNPFAKGFRGSDDLELHRMSRMQSKEYPVVPRSTVRHKVTSNHSPFSSETRALSTSSNLGSQYQCENGVSGP

binding (Flag-tagged myocardin): binds
B3: Myc-tagged Tbx5 deletion mutant (aa 1-400) (domain or fragment, UniProt P70326 1-400)
chain: MADTDEGFGLARTPLEPDSKDRSCDSKPESALGAPSKSPSSPQAAFTQQGMEGIKVFLHERELWLKFHEVGTEMIITKAGRRMFPSYKVKVTGLNPKTKYILLMDIVPADDHRYKFADNKWSVTGKAEPAMPGRLYVHPDSPATGAHWMRQLVSFQKLKLTNNHLDPFGHIILNSMHKYQPRLHIVKADENNGFGSKNTAFCTHVFPETAFIAVTSYQNHKITQLKIENNPFAKGFRGSDDLELHRMSRMQSKEYPVVPRSTVRHKVTSNHSPFSSETRALSTSSNLGSQYQCENGVSGPSQDLLPPPNPYPLAQEHSQIYHCTKRKDEECSSTEHPYKKPYMETSPSEEDTFYRSGYPQQQGLSTSYRTESAQRQACMYASSAPPSEPVPSLEDISCNT

These are yes or no findings as the source states them, for the method shown. For some assays here: Binding calls can cover weak binding; strength is not graded here. For some assays here: Binding seen in cells or lysates may run through a third protein. For some assays here: Sequences can lack the tags named with a protein. Each block holds one molecule with its values, some of them ahead of it.
